# Screen size: about 390,000 compounds; about 820 (0.21%) were called active. Inconclusive means that the source gave no clear call. Such entries were picked first, then a sample of the others. Calls follow the shape of the dose curve; as a rule, active = well fitted inhibition curve with a large enough effect; inconclusive = small, poorly fitted or top-dose-only effect, or another doubt; inactive = no such curve, though single readings can be large or run the other way. Potencies of inconclusive entries are doubtful fits and often do not repeat.
# Chains of the proteins cited; added tags and fusions are not shown.
# UniProt Q92830, whole entry, looked up: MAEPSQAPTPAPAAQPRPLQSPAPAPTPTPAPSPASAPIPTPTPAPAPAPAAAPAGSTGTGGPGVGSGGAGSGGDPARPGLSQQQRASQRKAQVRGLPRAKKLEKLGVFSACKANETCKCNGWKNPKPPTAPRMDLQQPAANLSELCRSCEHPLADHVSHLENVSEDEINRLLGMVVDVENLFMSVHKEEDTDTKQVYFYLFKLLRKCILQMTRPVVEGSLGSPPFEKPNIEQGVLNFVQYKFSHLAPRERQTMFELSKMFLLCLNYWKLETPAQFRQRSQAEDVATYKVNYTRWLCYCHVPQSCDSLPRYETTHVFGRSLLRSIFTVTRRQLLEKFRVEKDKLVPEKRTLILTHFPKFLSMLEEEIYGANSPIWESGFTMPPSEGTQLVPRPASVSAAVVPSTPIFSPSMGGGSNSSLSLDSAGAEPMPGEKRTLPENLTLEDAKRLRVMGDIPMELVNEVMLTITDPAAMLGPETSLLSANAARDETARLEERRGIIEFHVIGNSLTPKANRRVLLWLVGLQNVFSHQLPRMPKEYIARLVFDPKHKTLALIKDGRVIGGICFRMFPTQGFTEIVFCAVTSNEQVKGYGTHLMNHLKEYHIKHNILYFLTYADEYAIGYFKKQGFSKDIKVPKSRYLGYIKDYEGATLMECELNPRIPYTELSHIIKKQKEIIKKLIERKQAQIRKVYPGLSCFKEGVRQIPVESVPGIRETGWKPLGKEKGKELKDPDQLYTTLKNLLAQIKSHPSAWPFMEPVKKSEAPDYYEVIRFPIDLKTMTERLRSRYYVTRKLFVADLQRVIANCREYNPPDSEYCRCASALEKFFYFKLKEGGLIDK
# Target: Histone acetyltransferase KAT2A (Homo sapiens) (UniProt Q92830)
# Experiment: qHTS Assay for Inhibitors of GCN5L2
# Settings: GCN5L2 HAT assay, ThioGlo1 CoA-SH fluorescence; activity change, negative = inhibition: at 58.9 µM (top of the series) unless noted
# Outline: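 GCN5L2 (20nM final) in 50mM HEPES, 0.1mM EDTA pH 7.5, 0.01% Tween-20 was preincubated 15 min at room temperature with compound, then given ThioGlo1 (50uM), H3(1-25) peptide (75uM) and acetyl-CoA (70uM); CoA-thiol fluorescence (Ex340/Em540) was read at 0 and 20 min.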
# % is scaled to controls: 0 for no effect and ±100 for the full control effect; potency is read from the fitted curve at half-maximal effect.
SMILES,Potency,"activity change, negative = inhibition"
Cc1cc(C(=O)NCCN2C(=O)S/C(=C\c3cccs3)C2=O)ccc1[N+](=O)[O-],inactive,
O=C(O)c1ccc(-c2ncc[nH]2)cc1,inactive,
COc1ccc(OC)c(S(=O)(=O)Nc2c(NC3CCCCC3)c3ccccc3oc2=O)c1,"inconclusive: 0.141 µM [inhibitor, full curve, poor fit]",
Cc1ccc2cc(CCNC(=O)c3cccc([N+](=O)[O-])c3)c(=O)[nH]c2c1,"inconclusive: 0.631 µM [inhibitor, single point]",
COc1ccc(/C=C/C(=O)N(C)CC(=O)Nc2cccc(F)c2)cc1S(=O)(=O)N1CCCCC1,inactive,
Nc1cc(=O)nc(SCC(=O)Nc2ccc(F)cc2)n1-c1ccc(Cl)cc1,inactive,
O=C(Nc1ccc(F)cc1)c1oc2ccccc2c1NC(=O)C1CCCC1,"inconclusive: 3.55 µM [inhibitor, single point]",
CC1Sc2ccc(S(=O)(=O)N3CCN(c4cccc(Cl)c4)CC3)cc2NC1=O (centres undefined),"inconclusive: 0.708 µM [inhibitor, full curve]",
Cc1ccc(C)n1-c1sccc1C(=O)O,"inconclusive: 39.8 µM [inhibitor, single point]",
Cc1ccc(CNCc2c(C(=O)O)n(Cc3ccccc3C)c3cc(C)ccc23)cc1,inactive,
CN(C1=C(N2CCCCC2)C(=O)c2ccccc2C1=O)c1ccccc1,inactive,
CCC(NC(=O)c1cc(COc2ccc(C)nc2)on1)c1ccc(C)cc1 (centres undefined),"inconclusive: 3.55 µM [inhibitor, partial curve]",
CC(C)Oc1cccc(C(=O)C2CCCN(Cc3cccn3-c3cccnc3)C2)c1 (centres undefined),inactive,
O=C(NCCc1ccc(Cl)cc1)c1ccc(CSCc2ccccc2Cl)o1,"inconclusive: 35.5 µM [inhibitor, single point]",
O=C(COc1ccc(Cl)cc1)NC1CC1,"inconclusive: 5.01 µM [inhibitor, full curve, poor fit]",
O=C(N/N=C/c1cccnc1)c1cccc(N2CCCC2=O)c1,"inconclusive: 1.78 µM [inhibitor, partial curve]",
CC1CN(c2ccccc2)CCN1Cc1nc(Cc2ccccc2)no1 (centres undefined),"inconclusive: 25.1 µM [inhibitor, single point]",
NNc1cc([N+](=O)[O-])cc2c1C(=O)N(Cc1ccccc1)S2=O (centres undefined),"inconclusive: 35.5 µM [inhibitor, single point]",
Cc1ccccc1-c1nc(N2CCOCC2)c2ccccc2n1,"inconclusive: 35.5 µM [inhibitor, single point]",
O=C(COc1ccc(S(=O)(=O)N2CCOCC2)cc1)NCC1CCCO1 (centres undefined),"inconclusive: 1 µM [inhibitor, single point]",
Cc1ccc(CNC(=O)Cn2cc3c(n2)-c2c(oc(C(=O)N4CCOCC4)c2C)CC3)cc1,inactive,
COc1cc(C(=O)Nc2ccc(Br)cc2C(=O)c2cc(OC)c(OC)c(OC)c2)cc(OC)c1OC,inactive,
COc1ccc(S(=O)(=O)N2CCOCC2)cc1C(=O)Nc1ccc2c(c1)OCO2,"inconclusive: 3.55 µM [inhibitor, partial curve, poor fit]",

# Some values from the results shown:
# In Potency, O=C(COc1ccc(Cl)cc1)NC1CC1 has the entry inconclusive: 5.01 µM [inhibitor, full curve, poor fit]
# In Potency, CC1Sc2ccc(S(=O)(=O)N3CCN(c4cccc(Cl)c4)CC3)cc2NC1=O (centres undefined) has the entry inconclusive: 0.708 µM [inhibitor, full curve]

# (list continues)

SMILES,Potency,"activity change, negative = inhibition"
Cc1nc(S/C(=C/c2ccc(-c3ccc(C(=O)O)cc3)o2)C(=O)O)n[nH]1,,inconclusive: -38.3% [inhibitor]
COc1cc(CNCCSc2nnnn2C)ccc1OCc1ccccc1C,inactive,
O=C(O)CCn1c(SCCOc2ccccc2)nc2ccccc21,"inconclusive: 31.6 µM [inhibitor, single point]",
COc1cccc(CNS(=O)(=O)c2c(C(=O)N3CCCCC3)c(C)n(C)c2C)c1,inactive,
CCN(CCCNC(=O)C1CCN(S(=O)(=O)N2CCC3(CC2)OCCO3)CC1)c1ccccc1,"inconclusive: 39.8 µM [inhibitor, single point]",
O=C(N/N=C1/CCS(=O)(=O)c2ccc(F)cc21)c1ccccn1,inactive,
Cc1ccc(C)c(N2CCN(C(=O)CCNS(=O)(=O)c3ccc4c(c3)oc(=O)n4C)CC2)c1,inactive,
COc1cccc(-c2cn3c(n2)sc2cc(C(=O)NCc4ccccc4F)ccc23)c1,inactive,
COc1cc2nc(N3CCN(c4cc(C)ccc4C)CC3)nc(N)c2cc1OC,inactive,
Cc1ccccc1NC(=O)NNC(=O)c1ccc2ccccc2c1O,"inconclusive: 10 µM [inhibitor, partial curve, poor fit]",
COc1ccc(-c2c[n+]3c4n2CCCCC4=C(c2ccc(Br)cc2)C3)cc1,"inconclusive: 0.398 µM [inhibitor, full curve, poor fit]",
N#Cc1c(SCC(=O)Nc2nc3ccc(Br)cc3s2)sc2c(O)cc(=O)[nH]c12,"inconclusive: 35.5 µM [inhibitor, single point]",
Cc1ccccc1CC1(CO)CCCN(C(=O)c2cc(-c3ccccc3)no2)C1 (centres undefined),"inconclusive: 3.55 µM [inhibitor, partial curve, poor fit]",
CCOc1ccc(-c2cn3c(n2)sc2cc(C(=O)N4CCCC(C)C4)ccc23)cc1 (centres undefined),inactive,
CCCCN=Cc1c(C)[nH]n(-c2ccccc2)c1=S,"inconclusive: 39.8 µM [inhibitor, single point]",
Cc1ccc(NS(=O)(=O)c2cccc(C(=O)NCC(c3ccco3)N3CCCCC3)c2)cc1 (centres undefined),"inconclusive: 2.82 µM [inhibitor, full curve, poor fit]",
C(=N\N1CCN(Cc2cccc3ccccc23)CC1)/c1cccnc1,inactive,
O=C(/C=C/Nc1ccc(F)c(Cl)c1)c1ccco1,"inconclusive: 39.8 µM [inhibitor, single point]",
c1ccc(Cn2nnnc2C(c2cccs2)N2CCOCC2)cc1 (centres undefined),inactive,
O=S(=O)(c1cc(O)ccc1O)c1cccc2c(S(=O)(=O)c3cc(O)ccc3O)cccc12,"inconclusive: 28.2 µM [inhibitor, partial curve]",
CC(C)C1Oc2ccccc2N(CC(=O)N(Cc2ccccn2)C2CC2)C1=O (centres undefined),inactive,
CCC/C=N/NC(=O)c1cc(-c2ccccc2)nc2ccccc12,inactive,
OCC1OC([S-])[C@H](O)C(O)C1O.[Au+] (some centres undefined),active: 11.2 µM,

SMILES,Potency,"activity change, negative = inhibition"
C=CCc1ccccc1OCC(O)CNC1CCCC1 (centres undefined),inactive,
Fc1ccc(SCCc2ccncc2)cc1,"inconclusive: 25.1 µM [inhibitor, single point]",
Cc1ccc(NCC(=O)N=Nc2c(O)[nH]c3ccc([N+](=O)[O-])cc23)cc1,"inconclusive: 44.7 µM [inhibitor, partial curve, poor fit]",
CCc1ccc(NC(=O)Nc2ccon2)cc1,"inconclusive: 0.199 µM [inhibitor, full curve, poor fit]",
Cc1ccc(C2=NOC(=O)/C2=C\C=C\c2ccccc2)cc1,active: 25.1 µM,
O=C(Cc1ccc(Cl)cc1)N1CCN(C(=O)c2ccco2)CC1,"inconclusive: 0.708 µM [inhibitor, full curve, poor fit]",
CCN1CCN(Cc2ccc(NC(=O)c3cc(NC(=O)c4cc(C)on4)cc(OC)c3)cc2C(F)(F)F)CC1,inactive,
CCN(CC)S(=O)(=O)c1ccc2c(c1)N(CC(=O)NCc1ccc(F)cc1)C(=O)CO2,inactive,
Cc1nc(NC(=O)c2c(-c3ccccc3Cl)noc2C)sc1C,"inconclusive: 0.631 µM [inhibitor, full curve, poor fit]",
COc1cc(OC)c(OC)cc1CN1CCc2nc(N3CCN(c4ccccc4F)CC3)ncc2C1,inactive,
O=C(COC(=O)c1ccc(F)cc1Cl)NCc1ccco1,"inconclusive: 39.8 µM [inhibitor, single point]",
O=C(O)C(Oc1ccc2c(c1)oc(=O)c1ccccc12)c1ccccc1 (centres undefined),"inconclusive: 39.8 µM [inhibitor, single point]",
O=C(CC1C(=O)NCCN1Cc1ccc(Cl)c(F)c1)NC1CCC1 (centres undefined),"inconclusive: 3.98 µM [inhibitor, partial curve, poor fit]",
COc1ccc(/C=C/C(=O)c2c(O)cc(C)oc2=O)c(OC)c1,"inconclusive: 22.4 µM [inhibitor, partial curve]",
CCN1C(=O)[C@H]2[C@H]3CN=C(SCC(=O)c4ccccc4)N3[C@@](C)(C(=O)OC)[C@H]2C1=O,inactive,
COc1cc2c(cc1NC(=O)CSc1nnc(COc3ccc(Cl)cc3)n1C)oc1ccccc12,"inconclusive: 3.55 µM [inhibitor, single point]",
Cc1nc2c(c(=O)n1Cc1ccccc1Cl)c1nc3ccccc3nc1n2Cc1ccco1,"inconclusive: 12.6 µM [inhibitor, partial curve]",
COC(=O)c1ccc(-c2noc(CN(C)CCC3CCCCO3)n2)cc1 (centres undefined),"inconclusive: 28.2 µM [inhibitor, single point]",
CCC(C)n1c(SCC(=O)Nc2cc(C)on2)nc2ccccc2c1=O (centres undefined),"inconclusive: 39.8 µM [inhibitor, single point]",
NCCCC[C@H](NC(=O)[C@H](CS)NC(=O)[C@@H](N)Cc1cnc[nH]1)C(=O)N[C@@H](Cc1ccccc1)C(=O)N[C@@H](Cc1c[nH]c2ccccc12)C(=O)N[C@@H](Cc1c[nH]c2ccccc12)C(=O)O,inactive,
N#CC1=C2SCN(Cc3ccccc3)CN2C(=O)CC1c1cccs1 (centres undefined),"inconclusive: 28.2 µM [inhibitor, single point]",
CCC(C)NC(=O)CSc1nc2ccccc2c(=O)n1CCCN1CCCCC1 (centres undefined),"inconclusive: 0.126 µM [inhibitor, full curve, poor fit]",
COC1OC(COC(=O)c2ccccc2)C(OC(=O)c2ccccc2)C1OC(=O)c1ccccc1 (centres undefined),"inconclusive: 0.141 µM [inhibitor, full curve, poor fit]",

# Compounds above that contain a furan ring, fused or not, in the order listed:
SMILES,Potency,"activity change, negative = inhibition"
O=C(Nc1ccc(F)cc1)c1oc2ccccc2c1NC(=O)C1CCCC1,"inconclusive: 3.55 µM [inhibitor, single point]",
O=C(NCCc1ccc(Cl)cc1)c1ccc(CSCc2ccccc2Cl)o1,"inconclusive: 35.5 µM [inhibitor, single point]",
Cc1ccc(CNC(=O)Cn2cc3c(n2)-c2c(oc(C(=O)N4CCOCC4)c2C)CC3)cc1,inactive,
Cc1nc(S/C(=C/c2ccc(-c3ccc(C(=O)O)cc3)o2)C(=O)O)n[nH]1,,inconclusive: -38.3% [inhibitor]
Cc1ccc(NS(=O)(=O)c2cccc(C(=O)NCC(c3ccco3)N3CCCCC3)c2)cc1 (centres undefined),"inconclusive: 2.82 µM [inhibitor, full curve, poor fit]",
O=C(/C=C/Nc1ccc(F)c(Cl)c1)c1ccco1,"inconclusive: 39.8 µM [inhibitor, single point]",
O=C(Cc1ccc(Cl)cc1)N1CCN(C(=O)c2ccco2)CC1,"inconclusive: 0.708 µM [inhibitor, full curve, poor fit]",
O=C(COC(=O)c1ccc(F)cc1Cl)NCc1ccco1,"inconclusive: 39.8 µM [inhibitor, single point]",
COc1cc2c(cc1NC(=O)CSc1nnc(COc3ccc(Cl)cc3)n1C)oc1ccccc12,"inconclusive: 3.55 µM [inhibitor, single point]",
Cc1nc2c(c(=O)n1Cc1ccccc1Cl)c1nc3ccccc3nc1n2Cc1ccco1,"inconclusive: 12.6 µM [inhibitor, partial curve]",
